Article PMC10784507
Results are given in words; binding and its absence hold for the method and conditions named. Some results given as binding are weak or reduced against the parent protein; the word gives no strength. Tags and fused reporters may be left off the sequences shown. Each block holds one binder with its values, some of them ahead of it.

By UniProt entry, the sequences of proteins in these tests, tags left out. Where a name states a change or a piece, a line headed by the entry shows the natural chain unless it says otherwise. Residues count along the entry.
UniProt Q5VUM1: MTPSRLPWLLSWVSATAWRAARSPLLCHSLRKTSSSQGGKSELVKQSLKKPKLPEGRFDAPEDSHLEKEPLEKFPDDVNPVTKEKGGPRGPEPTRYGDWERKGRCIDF
FLAG-SDHAF4 (mature, residues 20-108): residues 20-108 of Q5VUM1
His6-SDHAF4^30-108: residues 30-108 of Q5VUM1
UniProt P31040, residues 43-664: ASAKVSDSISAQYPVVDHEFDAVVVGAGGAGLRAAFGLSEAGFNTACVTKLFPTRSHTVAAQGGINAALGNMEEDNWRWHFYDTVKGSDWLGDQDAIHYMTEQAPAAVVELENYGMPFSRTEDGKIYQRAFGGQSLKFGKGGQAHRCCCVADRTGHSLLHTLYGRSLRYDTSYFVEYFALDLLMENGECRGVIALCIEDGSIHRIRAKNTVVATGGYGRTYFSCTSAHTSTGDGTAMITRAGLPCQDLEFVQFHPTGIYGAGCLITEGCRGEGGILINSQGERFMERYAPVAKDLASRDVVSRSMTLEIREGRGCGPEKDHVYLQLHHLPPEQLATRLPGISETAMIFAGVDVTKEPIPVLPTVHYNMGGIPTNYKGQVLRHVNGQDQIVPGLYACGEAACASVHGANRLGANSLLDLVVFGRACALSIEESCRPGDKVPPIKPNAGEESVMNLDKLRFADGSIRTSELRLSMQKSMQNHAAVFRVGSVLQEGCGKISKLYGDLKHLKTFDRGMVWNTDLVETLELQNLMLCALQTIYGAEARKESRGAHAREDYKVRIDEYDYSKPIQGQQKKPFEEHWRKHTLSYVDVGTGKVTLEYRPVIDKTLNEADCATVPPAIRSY

Tests used:
[1] = molecular target: His6-SDHAF4^30-108 (human) (UniProt Q5VUM1); test: crystal structure; SDHA-AF2-AF4: holo-SDHA-SDHAF2 with His6-SDHAF4, 5 h at 4 °C, SEC; crystals in 0.2 M ammonium citrate tribasic pH 8.0, 20% PEG 3,350, 1 mM DTT, 25 °C; both purified
[2] = molecular target: holo-SDHA with covalently attached FAD (human) (UniProt P31040); test: as above
[3] = molecular target: FLAG-SDHAF4 (mature, residues 20-108) (human) (UniProt Q5VUM1); test: pull-down; ANTI-FLAG M2 affinity gel; SDHAF2 (8 µM) with FLAG-SDHAF4 (4 µM), or SDHAF2 alone; 40 mM HEPES pH 7.5, 0.5 mM DTT, 30 min 25 °C; SDS-PAGE, Coomassie, densitometry; both purified

- binding [1]: no binding
- binding [2]: binds
B1: untagged mature 37SDHAF2 (residues 37-166), co-expressed with His6-SDHA (protein, UniProt Q9NX18 37-166)
chain: GDSPTDSQKDMIEIPLPPWQERTDESIETKRARLLYESRKRGMLENCILLSLFAKEHLQHMTEKQLNLYDRLINEPSNDWDIYYWATEAKPAPEIFENEVMALLRDFAKNKNKEQRLRAPDLEYLFEKPR

B2: SDHAF2 (residues 37-166, His6 tag removed with TEV protease) (protein, UniProt Q9NX18 37-166)
chain: B1 chain
- binding [3]: no binding (tested: 8 µM SDHAF2, 4 µM FLAG-SDHAF4)
